Measurements: paper PMC8483321
Results are given in words; binding and its absence hold for the method and conditions named. Binding seen in cells or lysates may run through a third protein. These calls come from enrichment with a bait or labelling near it, and not all partners need be listed. For some assays here: A no says only that the protein was not detected with the bait. Each block holds one molecule with its values, some of them ahead of it.

Sequences of proteins named here, by UniProt entry; tags and fusion partners are left off. A change or cut given only in a name is not applied to a line headed by its entry. A line that says so, or that is headed by a name, gives the form on record, which may keep a tag or linker. Residues count along the entry.
UniProt Q92560: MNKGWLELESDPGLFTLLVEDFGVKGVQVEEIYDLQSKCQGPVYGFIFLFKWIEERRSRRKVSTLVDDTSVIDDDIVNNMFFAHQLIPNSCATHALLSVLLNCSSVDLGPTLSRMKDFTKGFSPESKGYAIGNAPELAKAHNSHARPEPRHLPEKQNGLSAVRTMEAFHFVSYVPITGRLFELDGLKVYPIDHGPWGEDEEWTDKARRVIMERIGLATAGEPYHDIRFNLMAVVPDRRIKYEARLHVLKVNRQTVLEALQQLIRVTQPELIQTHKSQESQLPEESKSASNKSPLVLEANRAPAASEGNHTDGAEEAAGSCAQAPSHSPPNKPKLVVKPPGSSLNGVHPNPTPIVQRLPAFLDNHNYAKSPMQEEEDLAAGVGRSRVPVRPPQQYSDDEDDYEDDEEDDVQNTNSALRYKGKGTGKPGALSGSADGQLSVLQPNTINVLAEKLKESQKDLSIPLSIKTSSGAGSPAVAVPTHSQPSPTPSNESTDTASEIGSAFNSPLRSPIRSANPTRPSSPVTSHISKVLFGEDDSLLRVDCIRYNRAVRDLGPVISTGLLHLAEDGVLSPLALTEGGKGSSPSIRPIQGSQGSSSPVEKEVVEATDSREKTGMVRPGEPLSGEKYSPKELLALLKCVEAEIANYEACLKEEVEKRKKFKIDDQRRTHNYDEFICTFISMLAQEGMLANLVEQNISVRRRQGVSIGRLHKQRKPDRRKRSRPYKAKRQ
GFP-BAP1 2–670: residues 2-670 of Q92560
GFP-BAP1 Δ671–710 (Q92560, form named): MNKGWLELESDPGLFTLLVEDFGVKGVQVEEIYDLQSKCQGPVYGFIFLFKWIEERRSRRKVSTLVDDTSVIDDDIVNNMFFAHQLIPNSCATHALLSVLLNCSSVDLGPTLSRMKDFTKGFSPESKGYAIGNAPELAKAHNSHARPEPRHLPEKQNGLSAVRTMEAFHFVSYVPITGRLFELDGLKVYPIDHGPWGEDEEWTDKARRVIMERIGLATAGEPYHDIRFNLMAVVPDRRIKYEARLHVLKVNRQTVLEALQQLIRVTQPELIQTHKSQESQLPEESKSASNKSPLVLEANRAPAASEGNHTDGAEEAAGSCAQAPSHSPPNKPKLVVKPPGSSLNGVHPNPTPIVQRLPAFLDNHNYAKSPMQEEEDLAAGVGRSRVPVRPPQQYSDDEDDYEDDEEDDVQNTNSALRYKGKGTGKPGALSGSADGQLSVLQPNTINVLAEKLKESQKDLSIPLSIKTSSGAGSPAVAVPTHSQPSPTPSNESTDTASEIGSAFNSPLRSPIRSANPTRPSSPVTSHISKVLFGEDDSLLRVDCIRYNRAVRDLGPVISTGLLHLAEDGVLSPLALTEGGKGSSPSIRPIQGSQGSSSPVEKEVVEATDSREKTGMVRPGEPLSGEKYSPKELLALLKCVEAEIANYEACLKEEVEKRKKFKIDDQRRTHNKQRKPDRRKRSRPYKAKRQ
UniProt Q07021, residues 74-282: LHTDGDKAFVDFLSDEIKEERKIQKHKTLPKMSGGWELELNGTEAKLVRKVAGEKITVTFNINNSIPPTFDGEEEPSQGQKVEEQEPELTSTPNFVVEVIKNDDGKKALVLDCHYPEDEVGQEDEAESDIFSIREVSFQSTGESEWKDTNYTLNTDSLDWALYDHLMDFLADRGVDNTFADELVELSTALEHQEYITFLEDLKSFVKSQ
UniProt Q13185: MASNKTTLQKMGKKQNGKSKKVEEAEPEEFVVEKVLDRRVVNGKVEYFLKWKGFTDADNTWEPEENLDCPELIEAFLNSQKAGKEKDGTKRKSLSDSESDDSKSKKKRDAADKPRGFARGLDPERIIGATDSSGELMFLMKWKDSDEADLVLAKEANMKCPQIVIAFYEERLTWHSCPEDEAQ
UniProt P53618: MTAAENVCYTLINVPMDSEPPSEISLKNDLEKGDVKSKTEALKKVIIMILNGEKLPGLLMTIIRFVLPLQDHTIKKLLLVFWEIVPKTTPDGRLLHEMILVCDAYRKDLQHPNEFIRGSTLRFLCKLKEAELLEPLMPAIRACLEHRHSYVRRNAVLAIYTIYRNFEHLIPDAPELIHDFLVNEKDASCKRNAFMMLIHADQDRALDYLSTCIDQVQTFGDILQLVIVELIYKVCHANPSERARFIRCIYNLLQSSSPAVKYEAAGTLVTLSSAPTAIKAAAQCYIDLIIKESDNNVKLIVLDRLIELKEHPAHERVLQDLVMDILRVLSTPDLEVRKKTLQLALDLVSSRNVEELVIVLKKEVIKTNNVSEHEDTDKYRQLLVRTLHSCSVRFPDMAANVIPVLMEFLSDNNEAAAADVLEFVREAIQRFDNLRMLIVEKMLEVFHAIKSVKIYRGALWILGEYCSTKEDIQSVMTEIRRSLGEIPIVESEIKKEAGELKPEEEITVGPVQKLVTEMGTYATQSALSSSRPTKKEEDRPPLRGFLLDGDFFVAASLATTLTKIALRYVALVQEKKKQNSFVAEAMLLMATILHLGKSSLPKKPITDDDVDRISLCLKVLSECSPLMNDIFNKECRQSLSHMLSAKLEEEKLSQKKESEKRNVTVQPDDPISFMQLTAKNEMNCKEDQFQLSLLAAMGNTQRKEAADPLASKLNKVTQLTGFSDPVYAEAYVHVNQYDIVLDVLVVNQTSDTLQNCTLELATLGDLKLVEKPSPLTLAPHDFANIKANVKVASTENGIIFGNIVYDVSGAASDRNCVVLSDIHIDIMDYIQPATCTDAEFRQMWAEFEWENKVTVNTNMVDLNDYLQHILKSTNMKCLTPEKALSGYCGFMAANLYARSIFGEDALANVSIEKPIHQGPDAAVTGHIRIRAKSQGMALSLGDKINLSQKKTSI
UniProt Q9Y678: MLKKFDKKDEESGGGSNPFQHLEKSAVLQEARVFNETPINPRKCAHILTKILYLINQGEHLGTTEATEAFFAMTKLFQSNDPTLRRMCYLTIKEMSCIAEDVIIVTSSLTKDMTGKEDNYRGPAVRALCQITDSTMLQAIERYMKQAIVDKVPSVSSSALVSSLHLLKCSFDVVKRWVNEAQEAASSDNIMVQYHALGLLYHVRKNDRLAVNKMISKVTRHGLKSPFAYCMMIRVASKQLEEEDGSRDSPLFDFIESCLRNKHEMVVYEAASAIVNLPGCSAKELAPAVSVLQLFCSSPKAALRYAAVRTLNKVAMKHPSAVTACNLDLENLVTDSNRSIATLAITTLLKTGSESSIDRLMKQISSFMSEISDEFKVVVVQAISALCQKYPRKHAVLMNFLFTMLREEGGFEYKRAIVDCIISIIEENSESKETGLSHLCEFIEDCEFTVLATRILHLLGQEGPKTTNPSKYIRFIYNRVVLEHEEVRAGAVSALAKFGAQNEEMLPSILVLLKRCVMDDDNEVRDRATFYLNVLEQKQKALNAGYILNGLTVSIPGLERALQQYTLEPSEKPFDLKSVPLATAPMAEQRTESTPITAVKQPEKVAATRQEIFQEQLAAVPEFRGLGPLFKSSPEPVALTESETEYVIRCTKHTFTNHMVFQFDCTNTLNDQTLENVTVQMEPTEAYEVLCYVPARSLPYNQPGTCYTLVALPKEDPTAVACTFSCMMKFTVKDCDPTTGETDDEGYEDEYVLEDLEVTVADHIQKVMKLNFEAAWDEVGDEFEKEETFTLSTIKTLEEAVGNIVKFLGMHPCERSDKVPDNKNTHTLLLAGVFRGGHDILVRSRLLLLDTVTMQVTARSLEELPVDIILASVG
UniProt P61923: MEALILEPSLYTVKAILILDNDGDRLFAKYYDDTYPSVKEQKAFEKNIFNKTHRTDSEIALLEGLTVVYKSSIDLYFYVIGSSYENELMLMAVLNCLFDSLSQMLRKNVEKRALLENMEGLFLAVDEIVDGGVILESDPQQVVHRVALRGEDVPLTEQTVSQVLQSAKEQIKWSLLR
UniProt Q14974: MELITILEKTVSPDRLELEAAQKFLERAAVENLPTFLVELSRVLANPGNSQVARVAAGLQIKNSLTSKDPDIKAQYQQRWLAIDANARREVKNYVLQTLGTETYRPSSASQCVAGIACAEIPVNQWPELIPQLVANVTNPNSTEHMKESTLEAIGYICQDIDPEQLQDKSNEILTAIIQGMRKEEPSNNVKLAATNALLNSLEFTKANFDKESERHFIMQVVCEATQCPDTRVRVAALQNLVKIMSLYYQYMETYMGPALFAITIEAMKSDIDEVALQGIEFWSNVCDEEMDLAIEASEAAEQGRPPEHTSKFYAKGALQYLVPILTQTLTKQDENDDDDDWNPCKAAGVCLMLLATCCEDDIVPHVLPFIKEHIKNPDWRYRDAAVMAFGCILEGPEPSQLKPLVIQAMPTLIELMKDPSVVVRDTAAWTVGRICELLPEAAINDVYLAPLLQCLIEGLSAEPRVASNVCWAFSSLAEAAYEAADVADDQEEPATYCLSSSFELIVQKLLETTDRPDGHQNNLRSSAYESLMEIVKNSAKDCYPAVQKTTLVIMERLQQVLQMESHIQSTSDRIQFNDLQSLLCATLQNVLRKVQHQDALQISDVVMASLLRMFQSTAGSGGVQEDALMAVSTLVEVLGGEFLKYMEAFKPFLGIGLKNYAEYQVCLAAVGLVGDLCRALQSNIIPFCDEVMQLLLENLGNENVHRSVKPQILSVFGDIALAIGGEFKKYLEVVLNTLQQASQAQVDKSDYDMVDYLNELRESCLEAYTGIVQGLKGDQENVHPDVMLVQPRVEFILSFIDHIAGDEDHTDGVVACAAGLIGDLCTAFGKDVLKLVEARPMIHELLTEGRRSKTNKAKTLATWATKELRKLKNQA
UniProt P06748: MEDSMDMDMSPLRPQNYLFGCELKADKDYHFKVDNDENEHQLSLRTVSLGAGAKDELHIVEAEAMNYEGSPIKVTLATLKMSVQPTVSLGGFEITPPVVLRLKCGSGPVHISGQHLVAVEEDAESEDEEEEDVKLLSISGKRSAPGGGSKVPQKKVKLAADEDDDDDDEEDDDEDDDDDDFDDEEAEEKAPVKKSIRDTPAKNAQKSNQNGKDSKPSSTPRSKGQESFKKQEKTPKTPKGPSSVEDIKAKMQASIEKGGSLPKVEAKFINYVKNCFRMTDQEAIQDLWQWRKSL
UniProt Q9Y265: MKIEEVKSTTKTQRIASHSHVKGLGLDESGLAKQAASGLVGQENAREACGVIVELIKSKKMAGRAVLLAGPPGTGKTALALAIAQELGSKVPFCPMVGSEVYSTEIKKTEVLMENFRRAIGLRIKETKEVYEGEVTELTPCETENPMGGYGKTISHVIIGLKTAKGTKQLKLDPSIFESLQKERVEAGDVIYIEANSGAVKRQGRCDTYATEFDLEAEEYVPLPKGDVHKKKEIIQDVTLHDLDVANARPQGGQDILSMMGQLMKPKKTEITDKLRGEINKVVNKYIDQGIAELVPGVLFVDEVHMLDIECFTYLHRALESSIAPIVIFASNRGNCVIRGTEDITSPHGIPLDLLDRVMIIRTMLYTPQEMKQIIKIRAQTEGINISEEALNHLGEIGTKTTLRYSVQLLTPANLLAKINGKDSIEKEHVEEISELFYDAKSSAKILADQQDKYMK
UniProt Q92973: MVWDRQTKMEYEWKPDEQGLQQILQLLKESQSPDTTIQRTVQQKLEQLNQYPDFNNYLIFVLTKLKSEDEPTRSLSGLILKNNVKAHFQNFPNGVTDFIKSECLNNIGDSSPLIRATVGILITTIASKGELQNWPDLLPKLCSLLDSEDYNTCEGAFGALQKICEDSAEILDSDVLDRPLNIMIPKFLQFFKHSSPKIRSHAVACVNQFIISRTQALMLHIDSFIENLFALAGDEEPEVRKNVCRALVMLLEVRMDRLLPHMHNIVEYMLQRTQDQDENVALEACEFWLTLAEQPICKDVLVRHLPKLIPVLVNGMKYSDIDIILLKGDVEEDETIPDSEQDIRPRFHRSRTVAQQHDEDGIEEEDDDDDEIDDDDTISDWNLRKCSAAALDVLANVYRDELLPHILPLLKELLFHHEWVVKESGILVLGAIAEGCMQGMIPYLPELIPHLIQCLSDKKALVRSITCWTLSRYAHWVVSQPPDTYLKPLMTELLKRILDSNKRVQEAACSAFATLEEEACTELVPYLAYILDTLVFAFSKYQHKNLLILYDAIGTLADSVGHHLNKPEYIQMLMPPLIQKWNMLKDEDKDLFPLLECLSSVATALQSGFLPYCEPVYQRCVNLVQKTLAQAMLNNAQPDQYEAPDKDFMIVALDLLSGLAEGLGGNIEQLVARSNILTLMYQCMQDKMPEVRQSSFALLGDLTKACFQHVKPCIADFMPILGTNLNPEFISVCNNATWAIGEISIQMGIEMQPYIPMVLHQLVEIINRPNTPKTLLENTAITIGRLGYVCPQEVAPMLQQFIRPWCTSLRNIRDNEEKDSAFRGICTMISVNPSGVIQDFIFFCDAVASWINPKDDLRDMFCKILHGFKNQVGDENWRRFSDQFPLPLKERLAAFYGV

Legend:
[1] = molecular target: (N)GFP-FLAG-BAP1 fusion protein (BRCA1-associated protein 1, full-length) (UniProt Q92560); test: affinity purification with mass spectrometry; GFP-Trap agarose beads, 20 min at 4°C with ethidium bromide, washes in C300 buffer; nuclear extracts of HeLa FRT ΔBAP1 (clone 4D2) lines expressing GFP-BAP1 full-length, 2–670 or Δ671–710; GFP or mock immunoprecipitation
[2] = molecular target: (N)GFP-FLAG-BAP1 fusion protein (BRCA1-associated protein 1, full-length) (UniProt Q92560); test: affinity purification with mass spectrometry; GFP-Trap agarose beads, 20 min at 4°C with ethidium bromide, washes in C300 buffer; cytoplasmic extracts of HeLa FRT ΔBAP1 (clone 4D2) lines expressing GFP-BAP1 full-length, 2–670 or Δ671–710; GFP or mock immunoprecipitation
[3] = molecular target: GFP-BAP1 Δ671–710 (UniProt Q92560); test: affinity purification with mass spectrometry; GFP-Trap agarose beads, 20 min at 4°C with ethidium bromide, washes in C300 buffer; nuclear extracts of HeLa FRT ΔBAP1 (clone 4D2) lines expressing GFP-BAP1 full-length, 2–670 or Δ671–710; GFP or mock immunoprecipitation
[4] = molecular target: GFP-BAP1 2–670 (UniProt Q92560); test: as above
[5] = molecular target: GFP-BAP1 Δ671–710 (UniProt Q92560); test: affinity purification with mass spectrometry; GFP-Trap agarose beads, 20 min at 4°C with ethidium bromide, washes in C300 buffer; cytoplasmic extracts of HeLa FRT ΔBAP1 (clone 4D2) lines expressing GFP-BAP1 full-length, 2–670 or Δ671–710; GFP or mock immunoprecipitation
[6] = molecular target: GFP-BAP1 2–670 (UniProt Q92560); test: as above
[7] = molecular target: (N)GFP-FLAG-BAP1 fusion protein (BRCA1-associated protein 1, full-length) (UniProt Q92560); test: affinity purification with mass spectrometry; GFP-Trap agarose beads, 20 min at 4°C with ethidium bromide, washes in C300 buffer; nuclear extracts of HeLa FRT ΔBAP1 (clone 4D2) lines expressing GFP-BAP1 full-length, 2–670 or Δ671–710; GFP or mock immunoprecipitation; remark: listed apart in the source
[8] = molecular target: (N)GFP-FLAG-BAP1 fusion protein (BRCA1-associated protein 1, full-length) (UniProt Q92560); test: affinity purification with mass spectrometry; GFP-Trap agarose beads, 20 min at 4°C with ethidium bromide, washes in C300 buffer; nuclear extract of HeLa FRT cells (endogenous BAP1 present) induced with doxycycline to express GFP-BAP1; against mock precipitation
[9] = molecular target: GFP-BAP1 Δ671–710 (UniProt Q92560); test: affinity purification with mass spectrometry; GFP-Trap agarose beads, 20 min at 4°C with ethidium bromide, washes in C300 buffer; nuclear extracts of HeLa FRT ΔBAP1 (clone 4D2) lines expressing GFP-BAP1 full-length, 2–670 or Δ671–710; GFP or mock immunoprecipitation; remark: listed apart in the source

binding [1]: no binding (only in the nuclear extract) | binding [2]: binds
Molecule: ANKHD1 (from UniProt Q8IWZ3 1-2542)

binding [1]: no binding (only in the nuclear extract) | binding [2]: binds
Molecule: ANKRD17 (from UniProt O75179 1-2603)

binding [1]: no binding (only in the nuclear extract) | binding [2]: binds
Molecule: C1QBP (from UniProt Q07021 74-282)

binding [1]: no binding (only in the nuclear extract) | binding [3]: binds | binding [4]: no binding (only in the nuclear extract) | binding [2]: binds | binding [5]: binds | binding [6]: binds
Molecule: CBX3 (from UniProt Q13185 1-183)

binding [1]: no binding (only in the nuclear extract) | binding [2]: binds
Molecule: COPB1 (from UniProt P53618 1-953)

binding [1]: no binding (only in the nuclear extract) | binding [2]: binds
Molecule: COPG1 (from UniProt Q9Y678 1-874)

binding [1]: no binding (only in the nuclear extract) | binding [2]: binds
Molecule: COPZ1 (from UniProt P61923 1-177)

binding [1]: no binding (only in the nuclear extract) | binding [2]: binds
Molecule: HUWE1 (from UniProt Q7Z6Z7 1-4374) (enzyme)

binding [1]: no binding (only in the nuclear extract) | binding [2]: binds
Molecule: KPNB1 (from UniProt Q14974 1-876)

binding [1]: no binding (only in the nuclear extract) | binding [2]: binds
Molecule: NPM1 (from UniProt P06748 1-294)

binding [1]: no binding (only in the nuclear extract) | binding [3]: no binding (only in the nuclear extract) | binding [4]: no binding (only in the nuclear extract) | binding [2]: binds | binding [5]: binds | binding [6]: binds
Molecule: RUVBL1 (from UniProt Q9Y265 1-456)

binding [1]: no binding (only in the nuclear extract) | binding [2]: binds
Molecule: TNPO1 (from UniProt Q92973 1-898)

binding [1]: no binding (only in the nuclear extract) | binding [2]: binds
Molecule: VCP (from UniProt P55072 1-806)

binding [7]: no binding (only in the nuclear extract) | binding [8]: no binding (only in the nuclear extract) | binding [2]: binds
B1: ARCN1 (protein, UniProt P48444 1-511)
chain: MVLLAAAVCTKAGKAIVSRQFVEMTRTRIEGLLAAFPKLMNTGKQHTFVETESVRYVYQPMEKLYMVLITTKNSNILEDLETLRLFSRVIPEYCRALEENEISEHCFDLIFAFDEIVALGYRENVNLAQIRTFTEMDSHEEKVFRAVRETQEREAKAEMRRKAKELQQARRDAERQGKKAPGFGGFGSSAVSGGSTAAMITETIIETDKPKVAPAPARPSGPSKALKLGAKGKEVDNFVDKLKSEGETIMSSSMGKRTSEATKMHAPPINMESVHMKIEEKITLTCGRDGGLQNMELHGMIMLRISDDKYGRIRLHVENEDKKGVQLQTHPNVDKKLFTAESLIGLKNPEKSFPVNSDVGVLKWRLQTTEESFIPLTINCWPSESGNGCDVNIEYELQEDNLELNDVVITIPLPSGVGAPVIGEIDGEYRHDSRRNTLEWCLPVIDAKNKSGSLEFSIAGQPNDFFPVQVSFVSKKNYCNIQVTKVTQVDGNSPVRFSTETTFLVDKYEIL

binding [7]: no binding (only in the nuclear extract) | binding [2]: binds
B2: NAP1L5 (protein, UniProt Q96NT1 1-182)
chain: MADSENQGPAEPSQAAAAAEAAAEEVMAEGGAQGGDCDSAAGDPDSAAGQMAEEPQTPAENAPKPKNDFIESLPNSVKCRVLALKKLQKRCDKIEAKFDKEFQALEKKYNDIYKPLLAKIQELTGEMEGCAWTLEGEEEEEEEYEDDEEEGEDEEEEEAAAEAAAGAKHDDAHAEMPDDAKK

binding [7]: binds | binding [2]: binds | binding [6]: binds
B3: HCFC2 (protein, UniProt Q9Y5Z7 1-792)
chain: MAAPSLLNWRRVSSFTGPVPRARHGHRAVAIRELMIIFGGGNEGIADELHVYNTATNQWFLPAVRGDIPPGCAAHGFVCDGTRILVFGGMVEYGRYSNELYELQASRWLWKKVKPHPPPSGLPPCPRLGHSFSLYGNKCYLFGGLANESEDSNNNVPRYLNDFYELELQHGSGVVGWSIPVTKGVVPSPRESHTAVIYCKKDSGSPKMYVFGGMCGARLDDLWQLDLETMSWSKPETKGTVPLPRSLHTASVIGNKMYIFGGWVPHKGENTETSPHDCEWRCTSSFSYLNLDTTEWTTLVSDSQEDKKNSRPRPRAGHCAVAIGTRLYFWSGRDGYKKALNSQVCCKDLWYLDTEKPPAPSQVQLIKATTNSFHVKWDEVSTVEGYLLQLSTDLPYQAASSDSSAAPNMQGVRMDPHRQGSNNIVPNSINDTINSTKTEQPATKETSMKNKPDFKALTDSNAILYPSLASNASNHNSHVVDMLRKNEGPHTSANVGVLSSCLDVRTVIPETSVSSTVSSTQTMVTQQTIKTESSSTNGAVVKDETSLTTFSTKSEVDETYALPATKISRVETHATATPFSKETPSNPVATVKAGERQWCDVGIFKNNTALVSQFYLLPKGKQSISKVGNADVPDYSLLKKQDLVPGTGYRFRVAAINGCGIGPFSKISEFKTCIPGFPGAPSAVRISKNVEGIHLSWEPPTSPSGNILEYSAYLAIRTAQIQDNPSQLVFMRIYCGLKTSCIVTAGQLANAHIDYTSRPAIVFRISAKNEKGYGPATQVRWLQGNNKKAPLN

binding [7]: no binding (only in the nuclear extract) | binding [9]: no binding (only in the nuclear extract) | binding [8]: no binding (only in the nuclear extract) | binding [2]: binds | binding [5]: binds
B4: COPB2 (protein, UniProt P35606 1-906)
chain: MPLRLDIKRKLTARSDRVKSVDLHPTEPWMLASLYNGSVCVWNHETQTLVKTFEVCDLPVRAAKFVARKNWVVTGADDMQIRVFNYNTLERVHMFEAHSDYIRCIAVHPTQPFILTSSDDMLIKLWDWDKKWSCSQVFEGHTHYVMQIVINPKDNNQFASASLDRTIKVWQLGSSSPNFTLEGHEKGVNCIDYYSGGDKPYLISGADDRLVKIWDYQNKTCVQTLEGHAQNVSCASFHPELPIIITGSEDGTVRIWHSSTYRLESTLNYGMERVWCVASLRGSNNVALGYDEGSIIVKLGREEPAMSMDANGKIIWAKHSEVQQANLKAMGDAEIKDGERLPLAVKDMGSCEIYPQTIQHNPNGRFVVVCGDGEYIIYTAMALRNKSFGSAQEFAWAHDSSEYAIRESNSIVKIFKNFKEKKSFKPDFGAESIYGGFLLGVRSVNGLAFYDWDNTELIRRIEIQPKHIFWSDSGELVCIATEESFFILKYLSEKVLAAQETHEGVTEDGIEDAFEVLGEIQEIVKTGLWVGDCFIYTSSVNRLNYYVGGEIVTIAHLDRTMYLLGYIPKDNRLYLGDKELNIISYSLLVSVLEYQTAVMRRDFSMADKVLPTIPKEQRTRVAHFLEKQGFKQQALTVSTDPEHRFELALQLGELKIAYQLAVEAESEQKWKQLAELAISKCQFGLAQECLHHAQDYGGLLLLATASGNANMVNKLAEGAERDGKNNVAFMSYFLQGKVDACLELLIRTGRLPEAAFLARTYLPSQVSRVVKLWRENLSKVNQKAAESLADPTEYENLFPGLKEAFVVEEWVKETHADLWPAKQYPLVTPNEERNVMEEGKDFQPSRSTAQQELDGKPASPTPVIVASHTANKEEKSLLELEVDLDNLELEDIDTTDINLDEDILDD
